## Library screening results

The chains behind the UniProt entries cited, without tags or fusion partners.
UniProt E9BF75, entry or part of it: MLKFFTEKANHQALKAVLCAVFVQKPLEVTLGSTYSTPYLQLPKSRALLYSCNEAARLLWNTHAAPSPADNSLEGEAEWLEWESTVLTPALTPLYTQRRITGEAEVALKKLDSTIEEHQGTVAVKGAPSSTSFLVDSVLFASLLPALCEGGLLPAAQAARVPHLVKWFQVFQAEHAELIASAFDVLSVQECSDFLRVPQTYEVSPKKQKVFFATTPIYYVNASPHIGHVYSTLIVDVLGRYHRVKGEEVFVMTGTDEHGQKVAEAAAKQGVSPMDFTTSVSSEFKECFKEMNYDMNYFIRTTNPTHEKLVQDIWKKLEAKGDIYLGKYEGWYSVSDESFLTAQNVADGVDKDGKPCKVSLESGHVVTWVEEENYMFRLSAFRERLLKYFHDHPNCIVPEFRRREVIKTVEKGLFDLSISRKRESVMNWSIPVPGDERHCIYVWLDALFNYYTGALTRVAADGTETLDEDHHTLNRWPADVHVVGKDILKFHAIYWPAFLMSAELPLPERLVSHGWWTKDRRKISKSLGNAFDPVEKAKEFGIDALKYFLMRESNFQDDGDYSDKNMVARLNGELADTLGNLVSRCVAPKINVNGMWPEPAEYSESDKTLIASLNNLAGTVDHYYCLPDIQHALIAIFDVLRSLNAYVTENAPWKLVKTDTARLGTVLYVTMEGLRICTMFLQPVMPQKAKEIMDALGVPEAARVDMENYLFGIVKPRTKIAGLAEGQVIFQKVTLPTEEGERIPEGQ

All values are in %.
How 0% and 100% were set is not recorded. Most values in the screen are low, and negative values occur.
The compounds are a random part of those screened.
A dash means the value is not listed here; it may have been measured.

Mtb heat-shock: 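Assay on Mycobacterium tuberculosis, filed only as a heat shock assay from Cornell; the read-out is not stated. The concentration is filed as 10 mM, unlikely as a test dose, so the dose is not known. Direction is inferred from retests: higher values go with stronger inhibition. About 69,000 compounds were tested under these conditions; 1.4% (about 930) showed 50% or more at least once.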
LdMetRS: 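Primary screen of methionyl-tRNA synthetase; the read-out is not stated. Target: Methionyl-tRNA synthetase (putative), Leishmania donovani (UniProt E9BF75). The test concentration is not given. The values are filed as inhibition. Size under these conditions: about 68,000 compounds, about 24 of them at 50% or above in at least one test.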
Mtb growth Cornell: 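Whole-cell assay for inhibitors of Mycobacterium tuberculosis growth, labelled Cornell in the record; the read-out is not stated. The concentration is filed as 10 mM, unlikely as a test dose, so the dose is not known. Higher means stronger inhibition (inferred from two other growth screens of the library). Size under these conditions: about 53,000 compounds, about 900 of them at 50% or above in at least one test.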

With Cc1cnc(N2CCn3cc(CNC(=O)CC4CC4)nc3C2)nc1 the screen gave Mtb heat-shock: -17.79%; LdMetRS: -4.53%.
With CN(Cc1ccc2c(c1)OCCO2)C(=O)Cn1ccccc1=O the screen gave Mtb heat-shock: -8.489%; LdMetRS: 13.99%.
With CN(C)C(=O)c1cnc2n1CCN(Cc1ccc3c(c1)OCO3)C2 the screen gave LdMetRS: 13.93%.
With CC(Cn1ccnc1)NC(=O)N1CCCN(Cc2cccs2)CC1 (stereo not shown) the screen gave Mtb heat-shock: -14.34%; LdMetRS: 18.18%.
With Cc1cc(C)n(CCCN(C)C(=O)[C@H]2CCCO2)n1 the screen gave Mtb heat-shock: 9.181%; LdMetRS: 8.982%; Mtb growth Cornell: -1.822%.
With CN(CCCc1cc(-c2ccc(F)cc2)n(C)n1)CC(=O)NC(N)=O the screen gave Mtb heat-shock: 24.77%; LdMetRS: 17.74%; Mtb growth Cornell: -11.86%.
With Cc1cccc(CN2CCc3c(COCC(=O)N(C)C)nn(C)c3C2)n1 the screen gave LdMetRS: 1.031%.
With COc1ccccc1C(=O)N1CCN(C(=O)CCn2ccnc2)CC1 the screen gave Mtb heat-shock: -32.9%; LdMetRS: 11.64%; Mtb growth Cornell: 16.63%.
With Cl.Clc1ccccc1OCCc1cc(C2CCNC2)n[nH]1 (stereo not shown) the screen gave Mtb heat-shock: -17.01%; Mtb growth Cornell: -21.05%.
With CC(C)C(NCc1ccc(Cn2cncn2)cc1)c1ccc(F)cn1 (stereo not shown) the screen gave Mtb heat-shock: -9.156%; LdMetRS: 14.64%; Mtb growth Cornell: 24.02%.
With Cc1nnc(CN2CCCC(CCc3ccccc3C(F)(F)F)C2)o1 (stereo not shown) the screen gave Mtb heat-shock: 7.418%; LdMetRS: 13.4%; Mtb growth Cornell: 13.74%.
With Cn1cc(C(=O)N(Cc2ccco2)Cc2cccs2)ccc1=O the screen gave Mtb heat-shock: 1.801%; LdMetRS: 18.18%; Mtb growth Cornell: 19.84%.
With CNc1ncc(CN2CCC(CCc3ccccc3)CC2)cn1 the screen gave Mtb heat-shock: 6.649%; LdMetRS: 7.447%; Mtb growth Cornell: 8.866%.
With CC(C)c1nccn1C1CCCN(C(=O)c2cc(C(N)=O)cs2)C1 (stereo not shown) the screen gave Mtb heat-shock: -12.72%; LdMetRS: 18.03%.
With O=C(C1CCOC1)N1CCC2(CC1)COCCN(Cc1ccncc1)C2 (stereo not shown) the screen gave LdMetRS: 10.99%.
With COCc1ncn2c1CN(C(=O)c1ccc3ccccc3n1)CC2.O=C(O)C(F)(F)F the screen gave Mtb heat-shock: -56.59%.
With O=C(CS(=O)(=O)C1CCCC1)NC1CCCc2cc(OC(F)F)ccc21 (stereo not shown) the screen gave Mtb heat-shock: -0.6145%; LdMetRS: 2.174%; Mtb growth Cornell: 15.56%.
With CCN(Cc1csc(CS(C)(=O)=O)n1)c1cccc(F)c1 the screen gave Mtb heat-shock: 7.767%; LdMetRS: 14.17%.
With Cn1c(C2CCCN2C(=O)CN2CCCC2=O)nc2ccccc21 (stereo not shown) the screen gave Mtb heat-shock: -16.55%; LdMetRS: 13.66%.
With [H][C@]12CN(CC=C(C)C)C[C@@]1(C(=O)O)CN(C(=O)c1cnccc1C)C2 the screen gave Mtb heat-shock: 0.77%; Mtb growth Cornell: 13.3%.
With CC(=O)NC[C@H]1COCc2nc3cc(S(C)(=O)=O)ccc3n21 the screen gave Mtb heat-shock: -5.749%; LdMetRS: 12.54%; Mtb growth Cornell: 8.555%.
With O=C(O)C(c1ccc2c(c1)OCO2)N1CCC(O)(c2cccnc2)CC1 (stereo not shown) the screen gave Mtb heat-shock: -6.615%; LdMetRS: 6.443%; Mtb growth Cornell: 7.392%.
With c1ccc(CN2CCc3ncnc(N4CCCC4)c3CC2)nc1 the screen gave LdMetRS: 7.958%.
With CCOc1ncccc1CNC(=O)Nc1cc(C)nn1C the screen gave Mtb heat-shock: 6.194%; LdMetRS: 19.77%; Mtb growth Cornell: -2.893%.
With Cc1nnc(N2CC[C@H]3C[C@@H](C(=O)N4CCCC4)O[C@H]3C2)s1 the screen gave LdMetRS: 2.985%.
With CC1CCCN(C(=O)c2ccn(COc3ccccc3)n2)C1 (stereo not shown) the screen gave Mtb heat-shock: -8.623%; LdMetRS: -47.49%.
With CCOCCCNC(=O)C(NC(=O)Cc1cccs1)c1ccc(C)cc1 (stereo not shown) the screen gave Mtb heat-shock: -20.45%; LdMetRS: 6.997%; Mtb growth Cornell: 3.863%.
With Cc1cc(O)c(OCC(=O)/N=c2/[nH]c3c(s2)CCC3)cn1 the screen gave Mtb heat-shock: 3.445%; LdMetRS: 20.96%; Mtb growth Cornell: 14.95%.
With Cn1cc(C(C)(O)CNC(=O)c2ccc(Br)s2)cn1 (stereo not shown) the screen gave Mtb heat-shock: -25.88%; LdMetRS: 2.135%; Mtb growth Cornell: 17.16%.
With NC(=O)C1(CCCc2ccncc2)CCCN1 (stereo not shown) the screen gave Mtb heat-shock: 0.2162%; LdMetRS: 17.71%; Mtb growth Cornell: 6.866%.
With CS(=O)(=O)c1cccc(OCC(=O)N2CCCC2c2ccccc2Cl)c1 (stereo not shown) the screen gave Mtb heat-shock: 21.69%; LdMetRS: 7.042%; Mtb growth Cornell: -2.872%.
With Cc1nc(NCc2nonc2C)cc(C(C)Cn2nc(C)c(C)c2C)n1 (stereo not shown) the screen gave Mtb heat-shock: 14.4%; LdMetRS: 7.143%; Mtb growth Cornell: 13.04%.
With CC(C#N)CNS(=O)(=O)c1ccc(Br)c(F)c1 (stereo not shown) the screen gave Mtb heat-shock: -68.12%; LdMetRS: 14.29%.
With CNC(=O)C1Cn2ccnc2C2(CCN(C(=O)c3ccoc3C)CC2)O1 (stereo not shown) the screen gave LdMetRS: 14.38%.
With COc1ccc(OCc2sc(C3(O)CCCNCC3)nc2C)cc1.Cl (stereo not shown) the screen gave Mtb heat-shock: -22.71%; Mtb growth Cornell: -11.88%.
With O=C(O)[C@]12CCCN(Cc3ccsc3)C[C@H]1CN(c1ncccn1)C2 the screen gave LdMetRS: 9.589%.
With CC(Cn1cccn1)NC(=O)Nc1nncs1 (stereo not shown) the screen gave Mtb heat-shock: -14.2%; LdMetRS: 24.43%.

Some entries from above, unchanged:

compound	Mtb heat-shock	LdMetRS	Mtb growth Cornell
CNC(=O)C1Cn2ccnc2C2(CCN(C(=O)c3ccoc3C)CC2)O1 (stereo not shown)	-	14.38%	-
O=C(C1CCOC1)N1CCC2(CC1)COCCN(Cc1ccncc1)C2 (stereo not shown)	-	10.99%	-

Data taken from ChEMBL document CHEMBL3988442, “University of Dundee, Small-Polar-MMV Screening Library” (2021).